Reference: patent US7029871
These are yes or no findings as the source states them, for the method shown. Some binding calls cover weakened binding; strength is not graded here.

Sequences of proteins named here, by UniProt entry; tags and fusion partners are left off. A change or cut given only in a name is not applied to a line headed by its entry.
UniProt Q13546: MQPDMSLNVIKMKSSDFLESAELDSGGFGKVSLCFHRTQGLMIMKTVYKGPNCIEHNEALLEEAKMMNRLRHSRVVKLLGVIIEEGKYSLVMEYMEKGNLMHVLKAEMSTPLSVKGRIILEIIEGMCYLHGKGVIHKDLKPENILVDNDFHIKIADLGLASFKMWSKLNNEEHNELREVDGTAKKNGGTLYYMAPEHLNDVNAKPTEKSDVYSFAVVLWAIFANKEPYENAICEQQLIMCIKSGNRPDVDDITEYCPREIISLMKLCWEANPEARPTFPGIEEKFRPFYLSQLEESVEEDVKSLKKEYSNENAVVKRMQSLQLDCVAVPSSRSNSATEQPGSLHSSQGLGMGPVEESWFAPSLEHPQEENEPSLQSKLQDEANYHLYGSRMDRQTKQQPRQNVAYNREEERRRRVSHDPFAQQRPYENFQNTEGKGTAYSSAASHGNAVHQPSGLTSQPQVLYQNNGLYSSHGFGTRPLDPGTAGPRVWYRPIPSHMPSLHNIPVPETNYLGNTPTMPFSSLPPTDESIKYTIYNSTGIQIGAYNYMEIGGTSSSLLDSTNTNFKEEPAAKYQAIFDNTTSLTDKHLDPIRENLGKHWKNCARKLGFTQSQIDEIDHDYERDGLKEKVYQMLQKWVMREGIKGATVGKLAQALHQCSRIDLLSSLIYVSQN

Target: T1, TNF-R associated death domain protein (TRADD) (UniProt Q15628)
T1 sequence (looked up): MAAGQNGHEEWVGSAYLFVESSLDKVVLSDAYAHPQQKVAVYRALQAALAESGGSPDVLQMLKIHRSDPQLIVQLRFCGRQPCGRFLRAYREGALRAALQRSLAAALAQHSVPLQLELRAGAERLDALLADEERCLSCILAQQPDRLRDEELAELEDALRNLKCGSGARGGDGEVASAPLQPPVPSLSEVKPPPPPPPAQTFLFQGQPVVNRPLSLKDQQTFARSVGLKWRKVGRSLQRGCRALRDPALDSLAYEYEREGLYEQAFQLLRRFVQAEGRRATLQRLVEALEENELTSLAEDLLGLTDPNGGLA
Assay: complex found in TNF-stimulated cells; method not described

For “human Receptor Interacting Protein (hRIP) (from UniProt Q13546 1-671) (enzyme)”, the binding was “binds”.
